# According to the supplement of paper PMC12578635:
# ± gives the standard deviation of the averaged measurements. This is one part of the list. Repeats are few or missing, and single values can be far off.
# Tested on: RAW 264.7 macrophages infected with S. aureus JE2-lux
# Experiment: host macrophage viability (CellTiter-Fluor) relative to DMSO vehicle; higher = more viable host cells
# Details: 10 µM; treatment time 4 h; gentamicin 50 µg/ml
row,SMILES,host macrophage viability
1,O=C(CSc1nnc2ccc(-c3ccncc3)nn12)NCc1ccc(F)cc1,112%
2,Cn1nc(C(=O)NCc2ccc(F)cc2)c2c1CCN(C(=O)c1cc(-c3cccs3)on1)C2,127%
3,O=C(NCC1CCCN1S(=O)(=O)c1cccs1)c1ccc([N+](=O)[O-])cc1 (centres undefined),120%
4,COc1ccccc1C(=O)Nc1cc(C(=O)N(C)C)cnc1N1CCNCC1,134%
5,O=C(NCc1ccc2c(c1)OCO2)c1ccc(-c2ccc(N3CCOCC3)nn2)cc1,108%
6,COc1ccc(CNC(=O)CSc2nccnc2N2CCSCC2)cc1,123%
7,COc1cc(C(=O)Nc2cccc3ccccc23)c(-n2cnnn2)cc1OC,104%
8,COc1ccc(CCNC(=O)Cn2c(-c3cccs3)cc3cccnc32)cc1OC,99.3%
9,CCOC(=O)c1cc([N+](=O)[O-])sc1NC(=O)CC,98.7 ± 2.9%
10,COc1ccc(S(=O)(=O)CCC(=O)Nc2nc3c(s2)COc2ccccc2-3)cc1,105%
11,Cc1cc2cc3c(cc2nc1SCC(=O)Nc1ccc2c(c1)OCO2)CCC3,110%
12,Cc1ccc2cc3cc(C(=O)OC(C(=O)NCC4CCCO4)c4ccccc4F)sc3nc2c1 (centres undefined),120%
13,NC(=O)c1ccsc1NC(=O)c1ccc2c(c1)OCCO2,98%
14,COC(=O)c1ccccc1NC(=O)c1cnc(C)nc1C,95.5%
15,O=C(O)c1cccnc1Nc1cccc([N+](=O)[O-])c1,99.4%
16,Cc1csc(-c2csc(S(=O)(=O)N3CC=C(c4ccccc4)CC3)c2)n1,101%
17,Cc1ccc(Cc2nn3c(SCC(=O)c4ccc(C)cc4)nnc3[nH]c2=O)cc1,114%
18,O=C1Nc2ccccc2/C1=C1/SC(=S)N(Nc2ccccc2)C1=O,112%
19,CC(=O)Nc1ccc(S(=O)(=O)Nc2cncc(C(=O)NC3CCCC3)c2)cc1,104%
20,Cc1cccc(NC(=O)C2CCN(C(=O)NCc3ccccc3)CC2)c1C,110%
21,CCOC(=O)c1c(-c2ccccc2)csc1NC1SC(=O)N(c2ccccc2)C1=O (centres undefined),119%
22,Cc1ccccc1C(=O)NCCNc1nc2c(c(=O)n(C)c(=O)n2C)n1Cc1ccccc1,99.5%
23,CCOC(=O)c1c(C)oc2c1/C(=C/NCCO)C(=O)c1ccccc1-2,136%
24,CCc1ccc(N2C(=O)NC3CC2(C)Oc2ccccc23)cc1 (centres undefined),113%
25,Cc1ccc(-c2nc3scc(CCNS(=O)(=O)c4ccc5c(c4)OCCO5)n3n2)cc1,116%
26,Cc1ccc2nc(-c3ccc(F)cc3)nc(SCC(=O)NCC3CCCO3)c2c1 (centres undefined),113%
27,Cn1cc(NC(=O)c2ccc(C(F)(F)F)nc2N2CCN(CCO)CC2)cn1,106%
28,Cc1nn2c(C(F)(F)F)cc(-c3ccccn3)nc2c1-c1ccccc1,117%
29,CCOc1ccccc1NC(=O)c1cnc2sccn2c1=O,105 ± 6%

# Grouped by structure: those above containing a halogen
row,SMILES,host macrophage viability
1,O=C(CSc1nnc2ccc(-c3ccncc3)nn12)NCc1ccc(F)cc1,112%
2,Cn1nc(C(=O)NCc2ccc(F)cc2)c2c1CCN(C(=O)c1cc(-c3cccs3)on1)C2,127%
12,Cc1ccc2cc3cc(C(=O)OC(C(=O)NCC4CCCO4)c4ccccc4F)sc3nc2c1 (centres undefined),120%
26,Cc1ccc2nc(-c3ccc(F)cc3)nc(SCC(=O)NCC3CCCO3)c2c1 (centres undefined),113%
27,Cn1cc(NC(=O)c2ccc(C(F)(F)F)nc2N2CCN(CCO)CC2)cn1,106%
28,Cc1nn2c(C(F)(F)F)cc(-c3ccccn3)nc2c1-c1ccccc1,117%
